# Hit rate of the full screen: of about 320,000 compounds, about 740 (0.23%) were called active. These results got no clear call from the source, so the numbers are uncertain. The call rests on the fitted dose curve; in most records, active means well fitted activation curve with a large enough effect; inconclusive means small, poorly fitted or top-dose-only effect; inactive means no such curve, though single readings can be large or run the other way.
# Test: qHTS Assay for Small Molecule Inhibitors of Mitochondrial Division or Activators of Mitochondrial Fusion; further: nearly all actives have a fitted effect of over 45% in size
# Conditions: S. cerevisiae fusion-defective mutant growth rescue, CellTiterGlo 48 h
# From the text: NIH Chemical Genomics Center [NCGC] NIH Molecular Libraries Probe Production centers Network [MLPCN] MLPCN Grant: MH081279-01 Assay Submitter (PI): Jodi M. Nunnari NCGC Assay Overview: The budding yeast S. cerevisiae is a powerful system to study mitochondrial fusion. Unlike other organisms, yeast cells without functional mitochondrial DNA (mtDNA) can be propagated and studied as long as they maintain a mitochondrial compartment and are provided with a fermentable carbon source. When mitochondrial fusion is blocked in yeast, mitochondrial tubules rapidly fragment and division continues unopposed. Under conditions where fusion is compromised in mammalian cells, nearly identical changes in mitochondrial structure have been observed. Thus, these findings indicate that steady state mitochondrial structure in cells is a characteristic and specific indicator of fusion activity. Mounting evidence has pointed to a connection between mitochondrial dynamics and apoptosis in mammalian cells. These studies indicate that in mammalian cells mitochondrial dynamics are more integrated into cellular processes than in yeast cells and have evolved not only to distribute the organelle but also to aid in the regulation of cellular homeostasis. Mitochondrial fusion proteins attenuate apoptosis by inhibiting the release of cytochrome c from mitochondria, in part by controlling cristae structures. […] We have developed and optimized a luminescence cell viability assay in 1536 well format for the identification of inhibitors in the yeast mitochondrial fusion-defective assay.
# The yeast glycerol stocks where kindly supplied by the laboratory of Dr. Jodi Nunnari, University of California, Davis. […] The CellTiterGlo luminescence reagent, containing luciferase and luciferin, were purchased from Promega, and the reagents were stored according to manufacturer's instructions. […] 7.#Read using bio-luminescence protocol on Viewlux.
# Potency means the concentration at half of the fitted maximal effect.
row,SMILES,Potency
1,CP(=O)(OC12CC3CC(CC(C3)C1)C2)OC12CC3CC(CC(C3)C1)C2,inconclusive: 15.8 µM
2,CCCOc1ccc(NP(C)(=O)Oc2ccc(Cl)cc2)cc1 (stereo not drawn),inconclusive: 15.8 µM
3,Cc1cccc(C)c1OP(C)(=O)Nc1ccc(SC(F)(F)F)cc1 (stereo not drawn),inconclusive: 12.6 µM

# Source: PubChem BioAssay AID485298 (National Center for Advancing Translational Sciences (NCATS), 2010)
